This passage reports GFP- results from the supplement of paper PMC11060735.

Molecules are shown by their SMILES. “And” between values parts separate entries of the source, which are not always exact repeats. Equal entries are not always repeated. Structures can show the parent of a compound that is named as a salt. ± gives the standard deviation of the averaged measurements. Whole data set: some 1,800 compounds, median “GFP- (p16Ink4a-) cell count relative to negative-control wells” near 0.99, cut for the lowest 2% near 0.5. The list shows a part of the results.

The assay deals with mouse p16Ink4a+/- lung fibroblasts (INKBRITE, bleomycin-injured). Kind of assay: GFP- (p16Ink4a-) cell count relative to negative-control wells (fold of vehicle); higher = more p16Ink4a- cells surviving. Conditions: 1 µM; 3 days.
Compound `CC(C)(C#N)c1ccc(N2C(=O)OCc3cnc4ccc(-c5cnc6ccccc6c5)cc4c32)cc1` showed a GFP- of 0.688.
Take `CCS(=O)(=O)N1CC(CC#N)(n2cc(-c3ncnc4[nH]ccc34)cn2)C1` [Baricitinib]: the GFP- was determined as 0.748 ± 0.053.
The figure for `Cc1cccc(C)c1OCC(C)N` (configuration not stated) [Mexiletine] is 1; for `COc1cc(F)c(C(C)C)cc1-c1ccc(C(F)(F)F)cc1CN1C(=O)O[C@H](c2cc(C(F)(F)F)cc(C(F)(F)F)c2)[C@@H]1C` [Anacetrapib] it is 1.01.
The figure for `COc1ccc2c(c1)C(=O)N(CCc1ccc(S(=O)(=O)NC(=O)NC3CCCCC3)cc1)C(=O)C2(C)C` [Gliquidone] is 1.13; for `O=c1c(O)c(-c2ccc(O)c(O)c2)oc2cc(O)cc(O)c12` [Quercetin] it is 0.879 and 0.914; for `CCCc1cc(C)nc(O)c1CNC(=O)c1cc(-c2ccc(N3CCN(C(C)C)CC3)nc2)cc2c1cnn2C(C)C` it is 1.13.
In the case of `CC/C(=C(/CC)c1ccc(O)cc1)c1ccc(O)cc1` [Diethylstilbestrol] it was 1.13; in that of `CC1(C)Cc2c(-c3ccccc3)c(-c3ccc(Cl)cc3)c(CC(=O)O)n2C1` [Licofelone], 0.892.
Turning to `CN(N=O)C(=O)N[C@@H]1[C@@H](O)[C@H](O)[C@@H](CO)O[C@@H]1O` [Streptozocin], the GFP- amounted to 1.05.
Consider `CN(C)CCCN1c2ccccc2CCc2ccc(Cl)cc21` [Clomipramine], for which the GFP- was 0.94.
In the case of `CC(C)n1cnc2c(NCCc3ccc(O)cc3)nc(-c3csc4ccccc34)nc21` [StemRegenin 1] it was 1.14; in that of `CCC(=O)O[C@]1(C(=O)CCl)[C@@H](C)C[C@H]2[C@@H]3C[C@H](F)C4=CC(=O)C=C[C@]4(C)[C@@]3(F)[C@@H](O)C[C@@]21C` [Halobetasol Propionate], 0.951.
Consider `Cc1cc(C)c(/C=C2\C(=O)Nc3ccccc32)[nH]1` [Semaxanib], for which the GFP- was 0.862.
In the case of `Cc1cc(C(C)(C)C)c(O)c(C)c1CC1=NCCN1` [Oxymetazoline] it was 0.98; in that of `CC(C)N(CCCNC(=O)Nc1ccc(C(C)(C)C)cc1)C[C@H]1O[C@@H](n2ccc3c(N)ncnc32)[C@H](O)[C@@H]1O`, 0.969 and 0.875; in that of `CN(C)Cc1cccc(/N=C(\c2ccccc2)c2c(O)[nH]c3cc(C(=O)N(C)C)ccc23)c1`, 0.939.
The figure for `Nc1ncnc2c1c(-c1cccc(OCc3ccccc3)c1)cn2[C@H]1C[C@H](CN2CCCC2)C1` is 1.03; for `Clc1ccc(C2(c3ccc(-c4cn[nH]c4)cc3)CCNCC2)cc1` it is 1.25; for `CC(=O)[C@H]1CC[C@H]2[C@@H]3C=CC4=CC(=O)CC[C@@]4(C)[C@@H]3CC[C@]12C` [Dydrogesterone] it is 1.
The figure for `CO[C@@H]1[C@@H](OC(N)=O)[C@@H](O)[C@H](Oc2ccc3c(O)c(NC(=O)c4ccc(O)c(CC=C(C)C)c4)c(=O)oc3c2C)OC1(C)C` [Novobiocin] is 0.976.
`Nc1ncnc2c1c(-c1cccc(OCc3ccccc3)c1)cn2[C@H]1C[C@@H](CN2CCC2)C1` gave a GFP- of 0.882.
In the case of `Nc1nc(CC(=O)Nc2ccc(CCNC[C@H](O)c3ccccc3)cc2)cs1` [Mirabegron] it was 0.979; in that of `COc1ccccc1OCC(O)CO` (configuration not stated) [Guaifenesin], 1.01; in that of `Cn1cc(C2=C(c3cn(CCCSC(=N)N)c4ccccc34)C(=O)NC2=O)c2ccccc21`, 0.769.
In the case of `CC(/C=C/C(=O)NO)=C\[C@@H](C)C(=O)c1ccc(N(C)C)cc1` [Trichostatin A] it was 0.5355 ± 0.0037; in that of `CC(C)(C)c1cc(/C=C(\C#N)C(N)=S)cc(C(C)(C)C)c1O` [Tyrphostin], 1.12.
With `Cc1cnc(-c2cc(N3CCN(C(=O)CCS(C)(=O)=O)CC3)ncc2Cl)c(C)c1`, the GFP- turned out to be 0.98.
`NC(=O)c1cn(Cc2c(F)cccc2F)nn1` [Rufinamide] had a GFP- of 1.11.
Compound `COc1cc(C(=O)NS(=O)(=O)c2ccccc2C)ccc1Cc1cn(C)c2ccc(NC(=O)OC3CCCC3)cc12` [Zafirlukast] registered a GFP- of 1.04.
In the case of `COC(=O)[C@@H]1[C@H]2C[C@H]3c4[nH]c5ccccc5c4CCN3C[C@@H]2CC[C@@H]1O` [Yohimbine] it was 0.987; in that of `COc1ccc(-c2cc3c(C)nc(N)nc3n([C@H]3CC[C@H](OCCO)CC3)c2=O)cn1`, 0.548.
The figure for `CC(C)OC(=O)C(C(=O)OC(C)C)=C1SC=CS1` [Malotilate] is 0.776; for `CC(C)N(C[C@H]1O[C@@H](n2cnc3c(N)ncnc32)[C@H](O)[C@@H]1O)C1CC(CCc2nc3cc(C(C)(C)C)ccc3[nH]2)C1` (some centres not stated) it is 0.935 ± 0.06.
The figure for `CCCSc1nc(N[C@@H]2C[C@H]2c2ccc(F)c(F)c2)c2nnn([C@@H]3C[C@H](OCCO)[C@@H](O)[C@H]3O)c2n1` [Ticagrelor] is 0.817; for `C[C@H]1COC2=C1C(=O)C(=O)c1c2ccc2c1CCCC2(C)C` [Cryptotanshinone] it is 0.986; for `COc1cc(Nc2ncc(F)c(Nc3ccc4c(n3)NC(=O)C(C)(C)O4)n2)cc(OC)c1OC` it is 0.591 and 0.783.
For `COC(=O)[C@H](CCCN=C(N)N)NS(=O)(=O)c1ccc(C)cc1`, the GFP- amounted to 1.02.
The figure for `c1ccc(-c2nn3c(c2-c2ccnc4cc(OCCN5CCOCC5)ccc24)CCC3)nc1` is 1.21.
The compound `CN(C)N=Nc1[nH]cnc1C(N)=O` [Dacarbazine] yielded a GFP- of 1.02.
As to `Nc1nc2ccc(OC(F)(F)F)cc2s1` [Riluzole], the GFP- came out at 0.989.
In the case of `O=C(O)c1ccccc1Nc1cccc(C(F)(F)F)c1` [Flufenamic Acid] it was 1.05; in that of `CC(O)C1C(=O)N2C(C(=O)O)=C(SC3CNC(C(=O)N(C)C)C3)C(C)C12` (configuration not stated) [Meropenem], 1.09; in that of `OC[C@H]1O[C@H](O[C@]2(CCl)O[C@H](CCl)[C@@H](O)[C@@H]2O)[C@H](O)[C@@H](O)[C@H]1Cl` [Sucralose], 1.14.
The figure for `C=CCn1c(=O)c2cnc(Nc3ccc(N4CCN(C)CC4)cc3)nc2n1-c1cccc(C(C)(C)O)n1` is 0.409; for `Clc1ccc(CCC(Cn2ccnc2)Sc2c(Cl)cccc2Cl)cc1` (configuration not stated) [Butoconazole] it is 1.04.
The compound `Cc1ccc(-c2cc(C(F)(F)F)nn2-c2ccc(S(N)(=O)=O)cc2)cc1` [Celecoxib] came in with a GFP- of 1.1.
Compound `CS(=O)(=O)N1CCN(Cc2cc3nc(-c4cccc5[nH]ncc45)nc(N4CCOCC4)c3s2)CC1` gave a GFP- of 0.676.
The figure for `CCCNS(=O)(=O)Nc1ncnc(OCCOc2ncc(Br)cn2)c1-c1ccc(Br)cc1` [Macitentan] is 0.983; for `COc1cc2nccc(Oc3ccc(NC(=O)Nc4cc(C)on4)c(Cl)c3)c2cc1OC` [Tivozanib] it is 1.01; for `Cc1cc(N2CCOCC2)ccc1Nc1nc(NC2CCCCC2)c2[nH]cnc2n1` it is 0.793.
The compound `C[N+](C)(C)CCO` [Choline] had a GFP- of 1.17.
The compound `CCc1c(Cl)c(O)c(Cl)c(O)c1C(=O)O[C@H]1[C@H](O)[C@H](OC)[C@H](OC/C2=C\C=C\C[C@H](O)/C(C)=C\[C@H](CC)[C@@H](O[C@@H]3OC(C)(C)[C@@H](OC(=O)C(C)C)[C@H](O)[C@@H]3O)/C(C)=C\C(C)=C/C[C@@H]([C@@H](C)O)OC2=O)O[C@@H]1C` [Fidaxomicin] gave a GFP- of 1.01.
Consider `Cc1ccc(Sc2ccccc2N2CCNCC2)c(C)c1` [Vortioxetine HBr], for which the GFP- is 1.01.
Consider `C=C(C)[C@@H]1CC[C@]2(C(=O)O)CC[C@]3(C)[C@H](CC[C@@H]4[C@@]5(C)CC[C@H](O)C(C)(C)[C@@H]5CC[C@]43C)[C@@H]12` [Betulinic acid], for which the GFP- was found to be 1.01.
On to `CNC[C@H](O)c1ccc(O)c(O)c1` [Epinephrine], for which the GFP- is 0.967 and 1.03 and 1.07.
In turn, `CN1[C@@H]2CC[C@H]1C[C@@H](OC(c1ccccc1)c1ccccc1)C2` [Benzatropine] gave a GFP- of 0.973.
The figure for `CC(S)C(=O)NCC(=O)O` (configuration not stated) [Tiopronin] is 1.04; for `O=C(/C=C\n1cnc(-c2cc(C(F)(F)F)cc(C(F)(F)F)c2)n1)N1CC(F)(F)C1` it is 0.67.
`CCCCNc1ncc(-c2ccc(CN3CCOCC3)cn2)c(N[C@H]2CC[C@H](O)CC2)n1` showed a GFP- of 0.929.
`O=C(Nc1ccccc1)c1cc([N+](=O)[O-])ccc1Cl` [2-chloro-5-nitro-N-phenylbenzamide] returned a GFP- of 1.15.
For `O=C(/C=C/c1ccc(O)c(O)c1)OCCc1ccccc1` [Caffeic Acid Phenethyl Ester], the GFP- amounted to 0.991.
The compound `O=C1Cc2c([nH]c3ccc(Br)cc23)-c2ncccc2N1` [1-Azakenpaullone] gave a GFP- of 1.09.
In the case of `CN(C)Cc1ccc(-c2nc3cccc4c3n2CCNC4=O)cc1` it was 0.796 ± 0.034; in that of `CCOC(=O)c1ccc(C#Cc2ccc3c(c2)C(C)(C)CCS3)nc1` [Tazarotene], 1.05; in that of `COc1cc(N2CCC(N(C)C)CC2)ccc1Nc1ncc(Cl)c(Nc2ccccc2P(C)(C)=O)n1`, 1.08.
The figure for `Cn1cc(-c2ccc3nnc(Sc4ccc5ncccc5c4)n3n2)cn1` is 0.95.
Take `C[C@H]1[C@H](NC(=O)/C(=N\OC(C)(C)C(=O)O)c2csc(N)n2)C(=O)N1S(=O)(=O)O` [Aztreonam]: the GFP- was 0.941.
The figure for `O=C(CCc1ccc(O)cc1)c1c(O)cc(O)cc1O[C@@H]1O[C@H](CO)[C@@H](O)[C@H](O)[C@H]1O` [Phloridzin] is 1.25; for `CC(C)(C)n1nc(-c2ccc(Cl)cc2)c2c(N)ncnc21` it is 1.07.
In the case of `Cc1c(Cc2ccc3ccccc3n2)c2cc(F)ccc2n1CC(=O)O` it was 1.06.
The figure for `COc1cccc2cc(-c3nc([C@H]4CC[C@H](C(=O)O)CC4)n4ncnc(N)c34)[nH]c12` is 0.817; for `CN/C(=C\[N+](=O)[O-])NCCSCc1ccc(CN(C)C)o1` [Ranitidine] it is 1.06; for `COc1ccc(CN2CCN(C(c3ccc(F)cc3)c3ccc(F)cc3)CC2)c(OC)c1OC` [Lomerizine, Lomerizine Dihydrochloride] it is 0.985.
Turning to `COc1c(C)c(C(=O)c2ccc(N)c(C(=O)O)c2)n2ccccc12`, the GFP- came to 1.07.
In the case of `CC(=O)Nc1ccccc1` [Acetanilide] it was 1.04; in that of `CN1CCC[C@@H]1CCO[C@](C)(c1ccccc1)c1ccc(Cl)cc1` [Clemastine, Clemastine Fumarate], 0.976.
